Test results from patent publication US10590365B2, “Compounds for a controlled release of active molecules” (FIRMENICH SA, priority 2013, dated 2020).

System: Propionibacterium acnes ATCC 6919
Assay: Incubation of pro-perfume glucuronide mixture with skin bacteria; remaining conjugate by LC-MS
Assay type: cell-based
Conditions: After 1 day, 37° C.; result in words
Description: The liberation of perfuming alcohols from the present invention's compounds of formula (I) was tested in vitro during incubation with defined skin bacteria strains.
c) Bacterial solutions: Two underarm bacterial isolates, Propionibacterium acnes ATCC 6919 and Staphylococcus warneri DSM 20316 (identified by 16S rDNA sequencing by Deutsche Sammlung von Mikroorganismen and ZellKulturen DSMZ, Germany), were cultivated on SCH agar at 37° C. during 72 h in anaerobic conditions and on TSA at 37° C. during 24 h, respectively.
One isolated colony of P. acnes from the pure primary culture on SCH agar was inoculated on a new SCH agar and incubated at 37° C., 72 h in anaerobic conditions. After incubation, the whole culture was dissociated by shaking in 20 ml of NaCl 0.9% then centrifuged 10 min at 5000 rpm at room temperature. The pellet was washed in NaCl 0.9% and concentrated two times in NaCl 0.9%. […]
The vials were placed in a heating block at 37° C. under gentle stirring from 1 to 7 days depending on the bacteria solutions. At the end of the incubation time, vials were cooled down to room temperature, 150 μL was mixed with 50 μL of LC-MS solvent B, filtered through acrodisc and 1 μL was injected on LC-MS (peak areas considered were measured in SIM mode according to their respective molecular weights). […]

SMILES: CC(=O)CCc1ccc(O[C@@H]2O[C@H](C(=O)O)[C@@H](O)[C@H](O)[C@H]2O)cc1 [(4-hydroxyphenyl)-2-butanone-β-D-glucopyranosiduronic acid]
- Glucuronide-conjugates remaining after incubation with Propionibacterium acnes: No transformation
